Laboratory results as given in the supplement of paper PMC10663445.
Counter-ions that a name gives are not always drawn. The list shows a part of the results. Repeats are few or missing, and single values can be far off.

system: hsa-miR-132-3p; experiment: miR-132-3p level in NGN2-iNs after compound treatment (TMM-normalised, ComBat batch-corrected) (batch-corrected normalised expression (arbitrary units)); higher = higher miR-132-3p expression; conditions: 10 µM; 24 h; human iPSC-derived NGN2 neurons (BR43)

| SMILES | miR-132-3p level in NGN2-iNs |
| --- | --- |
| CC(NC(=O)Cc1cc(F)cc(F)c1)C(=O)NC1C(=O)N(C)c2ccccc2-c2ccccc21 (centres undefined) | -0.914 |
| CCOc1cc(N)c(Cl)cc1C(=O)NCC1CN(Cc2ccc(F)cc2)CCO1 (centres undefined) [Mosapride Citrate] | 0.219 |
| Cc1cccc(Nc2ccccc2C(=O)O)c1C [Mefenamic Acid] | -0.732 |
| CCC(C)n1ncn(-c2ccc(N3CCN(c4ccc(OCC5COC(Cn6cncn6)(c6ccc(Cl)cc6Cl)O5)cc4)CC3)cc2)c1=O (centres undefined) [Itraconazole] | -0.837 |
| Cc1cc(-c2ccc(CC(=O)Nc3ccc(-c4cccnc4)cc3)cc2)ccn1 | -0.429 |
| COCCOc1ccc2c(c1)ncn2-c1ccc2cccc(N3CCC(N)CC3)c2n1 | 0.664 |
| OC[C@H]1O[C@@H](c2ccc(Cl)c(Cc3ccc(O[C@H]4CCOC4)cc3)c2)[C@H](O)[C@@H](O)[C@@H]1O | 2 |
| CC1(C)CNc2cc(NC(=O)c3cccnc3NCc3ccncc3)ccc21 [Motesanib Diphosphate (AMG-706)] | 0.361 |
| Oc1cc(O)c(Cl)cn1 [Gimeracil] | 1.25 |
| COC(=O)C1=C(C)NC(C)=C(C(=O)OCC(C)C)C1c1ccccc1[N+](=O)[O-] (centres undefined) [Nisoldipine] | 0.229 |
| COc1c2ccoc2cc2oc(=O)ccc12 [Bergapten] | -0.131 |
| Cc1ccccc1C(OCCN(C)C)c1ccccc1 (centres undefined) [Orphenadrine Citrate] | 0.525 |
| CNCc1cc(-c2ccccc2F)n(S(=O)(=O)c2cccnc2)c1 [Vonoprazan Fumarate (TAK-438)] | -1.52 |
| CN1CCC(=C2c3ccccc3CCc3sccc32)CC1 [Pizotifen Malate] | -0.416 |
| COc1ncc(-c2ccc3nccc(-c4ccnnc4)c3c2)cc1NS(=O)(=O)c1ccc(F)cc1F | 0.963 |
| CCCCNc1ccc(C(=O)OCCN(C)C)cc1 [Tetracaine HCl] | 0.46 |
| COc1ccc2cc(-c3nc(-c4ccc([S+](C)[O-])cc4)[nH]c3-c3ccncc3)ccc2c1 (centres undefined) [Tie2 kinase inhibitor] | -1.23 |
| CCCCCOC(=O)Nc1nc(=O)n([C@@H]2O[C@H](C)[C@@H](O)[C@H]2O)cc1F [Capecitabine] | -0.137 |
| Nc1ncnc2c1C(=O)N(c1ccc([C@H]3CC[C@H](CC(=O)O)CC3)cc1)CCO2 | -0.113 |
| CCN1C(=CC(C)=O)Sc2ccc(OC)cc21 | -1.26 |

Some of the entries above in another layout:
SMILES	miR-132-3p level in NGN2-iNs
CCOc1cc(N)c(Cl)cc1C(=O)NCC1CN(Cc2ccc(F)cc2)CCO1 (centres undefined) [Mosapride Citrate]	0.219
Cc1cccc(Nc2ccccc2C(=O)O)c1C [Mefenamic Acid]	-0.732
OC[C@H]1O[C@@H](c2ccc(Cl)c(Cc3ccc(O[C@H]4CCOC4)cc3)c2)[C@H](O)[C@@H](O)[C@@H]1O	2
COc1c2ccoc2cc2oc(=O)ccc12 [Bergapten]	-0.131
CNCc1cc(-c2ccccc2F)n(S(=O)(=O)c2cccnc2)c1 [Vonoprazan Fumarate (TAK-438)]	-1.52
COc1ncc(-c2ccc3nccc(-c4ccnnc4)c3c2)cc1NS(=O)(=O)c1ccc(F)cc1F	0.963
CCCCNc1ccc(C(=O)OCCN(C)C)cc1 [Tetracaine HCl]	0.46
COc1ccc2cc(-c3nc(-c4ccc([S+](C)[O-])cc4)[nH]c3-c3ccncc3)ccc2c1 (centres undefined) [Tie2 kinase inhibitor]	-1.23
Nc1ncnc2c1C(=O)N(c1ccc([C@H]3CC[C@H](CC(=O)O)CC3)cc1)CCO2	-0.113

Further records follow.

| SMILES | miR-132-3p level in NGN2-iNs |
| --- | --- |
| O=C1[C@H](CC[C@H](O)c2ccc(F)cc2)[C@@H](c2ccc(O)cc2)N1c1ccc(F)cc1 [Ezetimibe] | 1.02 |
| Cc1cc(-c2ncc(CC(=O)Nc3ccc(-c4cnccn4)cn3)cc2C)ccn1 | 0.408 |
| Cc1cnc(C(=O)NCCc2ccc(S(=O)(=O)NC(=O)NC3CCCCC3)cc2)cn1 [Glipizide] | -0.123 |
| CCN1CCN(Cc2ccc(Nc3ncc(F)c(-c4cc(F)c5nc(C)n(C(C)C)c5c4)n3)nc2)CC1 | -1.39 |
| COCCc1ccc(OCC(O)CNC(C)C)cc1 (centres undefined) [Metoprolol Tartrate] | -0.374 |
| COc1ccc(CN2CCN(C(c3ccc(F)cc3)c3ccc(F)cc3)CC2)c(OC)c1OC [Lomerizine 2HCl] | -0.0461 |
| CC(C)Cc1ccc(C(C)C(=O)O)cc1 (centres undefined) [Ibuprofen] | 0.329 |
| O=c1c(O)c(-c2ccc(O)c(O)c2)oc2cc(O)cc(O)c12 [Quercetin] | 0.176 |
| O=c1c(O)c(-c2ccc(O)c(O)c2)oc2cc(O)cc(O)c12 [Quercetin Dihydrate] | 2.25 |
| Cc1cnc(C(=O)O)c[n+]1[O-] [Acipimox] | -0.98 |
| O=C(c1cncc(Br)c1)N1CCC(N2CCCC2)CC1 | -0.364 |
| O=C(O)c1cc(I)ccc1NC(=O)[C@H](Cc1ccccc1)NCc1ccccc1 | -0.388 |
| CC[N+](CC)(CC)CCOc1cccc(OCC[N+](CC)(CC)CC)c1OCC[N+](CC)(CC)CC [Gallamine Triethiodide] | 0.637 |
| O=C(O)c1ccccc1 [Benzoic Acid] | -0.135 |
| CC[C@@H]([C@H](C)O)n1ncn(-c2ccc(N3CCN(c4ccc(OC[C@@H]5CO[C@@](Cn6cncn6)(c6ccc(F)cc6F)C5)cc4)CC3)cc2)c1=O [Posaconazole] | 0.175 |
| CCCCC[C@H](O)/C=C/[C@H]1[C@H](O)CC(=O)[C@@H]1CCCCCCC(=O)O [Alprostadil] | 0.351 |
| CC(C(=O)O)c1ccc(C(=O)c2cccs2)cc1 (centres undefined) [Suprofen] | 0.504 |
| CN1CCN(c2nc(C3=C(c4c[nH]c5ccccc45)C(=O)NC3=O)c3ccccc3n2)CC1 [Sotrastaurin] | 0.83 |
| CCOc1ccc(NC(C)=O)cc1 [Phenacetin] | -0.0522 |
